Assay results: the supplement of paper PMC12889115
Some of the results follow. Values are raw readings; no control value is given beside them.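 First-pass screen: polymyxin B was added at a level that permeabilizes the Salmonella outer membrane while sparing the inner membrane. DMSO wells, with and without polymyxin B, defined maximum growth. Because plates differed from one another, each plate's data were ranked separately and the compounds with the lowest OD600 were carried forward as hits.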

System: Salmonella enterica serovar Typhimurium SL1344
Test: bacterial growth OD600 after 18 h with compound and polymyxin B; higher = more bacterial growth (less inhibition)
Details: 50 µM, Mueller-Hinton broth

Question: With `O=C(CCc1nc2ccccc2s1)NCCN1Cc2ccccc2OC(c2ccccc2)C1` (centres undefined) as the molecule, how does the “bacterial growth OD600” value (polymyxin B 0.75 µg/mL) read?
Answer: The value was 0.765.

Question: `O=C(NCc1ccon1)c1csc2nc(-c3ccccc3)cn12` was tested. Which “bacterial growth OD600” value (polymyxin B 1 µg/mL) did it give?
Answer: Its value is 1.08.

Question: With `COc1cccc(N2CCN(C(=O)Cn3cc(NC(=O)CCC(=O)c4ccccc4)cn3)CC2)c1` as the molecule, how does the “bacterial growth OD600” value (polymyxin B 0.75 µg/mL) read?
Answer: The value was 0.786.

Question: `CCCCN(C)C(=O)C1CCCN(C2CCN(C(=O)C3CC3)CC2)C1` (centres undefined) was tested. Which “bacterial growth OD600” value (polymyxin B 0.75 µg/mL) did it give?
Answer: Its value is 0.83.

Question: With `O=C(CC(c1ccc(O)cc1)c1cccc(O)c1)N1CCCCCCC1` (centres undefined) as the molecule, how does the “bacterial growth OD600” value (polymyxin B 1 µg/mL) read?
Answer: The value was 0.813.

Question: With `CN1CCCCC1CCNC(=O)c1ccc(NCc2cccc(F)c2)nc1` (centres undefined) as the molecule, how does the “bacterial growth OD600” value (polymyxin B 1 µg/mL) read?
Answer: The value was 0.923.

Question: How did the “bacterial growth OD600” value (polymyxin B 1 µg/mL) turn out when `Cc1oc(-c2ccc(C(F)(F)F)cc2)nc1CN1CCCCC1CCN1CCCC1=O` (centres undefined) was run?
Answer: Its value is 0.874.

Question: How did the “bacterial growth OD600” value (polymyxin B 0.75 µg/mL) turn out when `O=C(CCC1(Cc2cccs2)CCC(=O)N1)NCCc1ccccc1C(F)(F)F` (centres undefined) was run?
Answer: The value was 0.791.

Question: For `Cc1occc1C(=O)N1CCC2(CCCN(Cc3ccc(F)cc3)C2=O)C1` (centres undefined), which “bacterial growth OD600” value (polymyxin B 1 µg/mL) is on record?
Answer: Its value is 0.89.

Question: Which “bacterial growth OD600” value (polymyxin B 0.75 µg/mL) does the source give for `COc1ccc(CCN2CCCC(CN(C)Cc3nc4c(s3)CCCC4)C2)cc1` (centres undefined) here?
Answer: The value was 0.622.

Question: `O=C(c1ccc(NCCCO)nc1)N1CCCC(c2ccccc2)CC1` (centres undefined) was tested. Which “bacterial growth OD600” value (polymyxin B 1 µg/mL) did it give?
Answer: The value was 1.02.

Question: Which “bacterial growth OD600” value (polymyxin B 1 µg/mL) does the source give for `CCOC(=O)N1CCC(NC2CCCN(c3nc4ccccc4s3)C2)CC1` (centres undefined) here?
Answer: The value was 0.895.

Question: `COc1ccc(CCN2CCCC(CN(C)CC(C)(C)CO)C2)cc1` (centres undefined) was tested. Which “bacterial growth OD600” value (polymyxin B 0.75 µg/mL) did it give?
Answer: Its value is 0.79.

Question: Which “bacterial growth OD600” value (polymyxin B 1 µg/mL) does the source give for `CN(Cc1nc(-c2cnccn2)no1)Cc1cccc2ccccc12` here?
Answer: Its value is 0.936.

Question: `C#CCN(C(=O)CCC1(Cc2ccc(SC)cc2)CCC(=O)N1)C1CCCCC1` (centres undefined) was tested. Which “bacterial growth OD600” value (polymyxin B 0.75 µg/mL) did it give?
Answer: The value was 0.751.

Question: For `CC(C)n1cc(C(=O)N(C)CC2CCCN(CCc3ccc(Cl)cc3)C2)cn1` (centres undefined), which “bacterial growth OD600” value (polymyxin B 1 µg/mL) is on record?
Answer: The value was 0.93.

Question: With `Cc1cccc(CNC(=O)C2CCCN(C3CCN(Cc4ccccc4)CC3)C2)n1` (centres undefined) as the molecule, how does the “bacterial growth OD600” value (polymyxin B 0.75 µg/mL) read?
Answer: The value was 0.834.

Question: `CC(C)Cn1cc(C(=O)NC(c2ccco2)C(F)(F)F)c(=O)c(C(=O)N2CCCCCC2)c1` (centres undefined) was tested. Which “bacterial growth OD600” value (polymyxin B 0.75 µg/mL) did it give?
Answer: The value was 0.732.

Question: With `COc1ccc2cc(C(=O)C3CCCN(Cc4ccc(OC)c(OC)c4OC)C3)ccc2c1` (centres undefined) as the molecule, how does the “bacterial growth OD600” value (polymyxin B 1 µg/mL) read?
Answer: The value was 0.593.
